Assay [1] concerns the target HA-tagged X-prolyl aminopeptidase 2 (XPNPEP2) (UniProt O43895). Briefly: co-IP; HEK293T lysed in IP lysis buffer with PMSF, precleared with protein A/G plus agarose beads and IgG, primary antibodies overnight, beads overnight at 4 °C, Western blot. A general note: Immunoblotting shows a protein as a band on a membrane.
The target of another assay is T1, SLC25A6 (UniProt P12236).
T1 sequence: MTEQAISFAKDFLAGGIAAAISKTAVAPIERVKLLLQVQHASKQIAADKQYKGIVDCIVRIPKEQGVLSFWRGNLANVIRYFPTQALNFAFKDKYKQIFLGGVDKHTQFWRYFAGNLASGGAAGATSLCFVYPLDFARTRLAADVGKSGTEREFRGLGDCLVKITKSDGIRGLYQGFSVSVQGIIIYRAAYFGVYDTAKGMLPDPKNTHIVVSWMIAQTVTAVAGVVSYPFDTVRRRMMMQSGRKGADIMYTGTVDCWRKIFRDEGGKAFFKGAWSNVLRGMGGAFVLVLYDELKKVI
The assay is described as above.

Amino acid sequences for entries named in this document (tags omitted). Residues count along the entry.
UniProt O43895, residues 22-649: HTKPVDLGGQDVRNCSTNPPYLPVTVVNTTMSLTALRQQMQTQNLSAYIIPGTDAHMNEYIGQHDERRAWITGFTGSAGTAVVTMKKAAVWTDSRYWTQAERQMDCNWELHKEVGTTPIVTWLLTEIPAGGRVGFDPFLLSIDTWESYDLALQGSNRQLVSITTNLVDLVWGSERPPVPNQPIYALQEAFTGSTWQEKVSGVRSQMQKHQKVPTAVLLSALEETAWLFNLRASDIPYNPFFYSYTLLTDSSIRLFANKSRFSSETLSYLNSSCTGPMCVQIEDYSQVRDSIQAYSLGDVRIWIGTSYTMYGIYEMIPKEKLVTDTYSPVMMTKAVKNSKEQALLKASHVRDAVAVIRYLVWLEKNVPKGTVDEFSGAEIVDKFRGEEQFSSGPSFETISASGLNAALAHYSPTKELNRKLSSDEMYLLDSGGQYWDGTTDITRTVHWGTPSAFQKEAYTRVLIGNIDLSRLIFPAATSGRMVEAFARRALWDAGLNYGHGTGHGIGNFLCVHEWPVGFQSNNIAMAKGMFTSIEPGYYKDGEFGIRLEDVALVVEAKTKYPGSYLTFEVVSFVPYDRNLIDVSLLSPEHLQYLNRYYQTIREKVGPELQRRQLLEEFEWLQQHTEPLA

These are yes or no findings as the source states them, for the method shown. Binding seen in cells or lysates may run through a third protein. Some binding calls cover weakened binding; strength is not graded here. For some assays here: Sequences can lack the tags named with a protein.

B1: SLC25A6-FLAG (protein, UniProt P12236 1-298)
chain: T1 sequence
For the molecule B1, in assay [1], the binding result is listed as “binds”.

B2: Siah E3 ubiquitin protein ligase 1 (SIAH1) (protein, UniProt Q8IUQ4 1-282)
chain: MSRQTATALPTGTSKCPPSQRVPALTGTTASNNDLASLFECPVCFDYVLPPILQCQSGHLVCSNCRPKLTCCPTCRGPLGSIRNLAMEKVANSVLFPCKYASSGCEITLPHTEKADHEELCEFRPYSCPCPGASCKWQGSLDAVMPHLMHQHKSITTLQGEDIVFLATDINLPGAVDWVMMQSCFGFHFMLVLEKQEKYDGHQQFFAIVQLIGTRKQAENFAYRLELNGHRRRLTWEATPRSIHEGIATAIMNSDCLVFDTSIAQLFAENGNLGINVTISMC
In the case of B2, the binding result in the assay with SLC25A6 is reported as “binds”.
